Test [1] concerns the target T1, Rho GTPase-activating protein 26 (ARHGAP26) (human (endogenous in SKOV3)) (UniProt Q9UNA1).
T1 sequence: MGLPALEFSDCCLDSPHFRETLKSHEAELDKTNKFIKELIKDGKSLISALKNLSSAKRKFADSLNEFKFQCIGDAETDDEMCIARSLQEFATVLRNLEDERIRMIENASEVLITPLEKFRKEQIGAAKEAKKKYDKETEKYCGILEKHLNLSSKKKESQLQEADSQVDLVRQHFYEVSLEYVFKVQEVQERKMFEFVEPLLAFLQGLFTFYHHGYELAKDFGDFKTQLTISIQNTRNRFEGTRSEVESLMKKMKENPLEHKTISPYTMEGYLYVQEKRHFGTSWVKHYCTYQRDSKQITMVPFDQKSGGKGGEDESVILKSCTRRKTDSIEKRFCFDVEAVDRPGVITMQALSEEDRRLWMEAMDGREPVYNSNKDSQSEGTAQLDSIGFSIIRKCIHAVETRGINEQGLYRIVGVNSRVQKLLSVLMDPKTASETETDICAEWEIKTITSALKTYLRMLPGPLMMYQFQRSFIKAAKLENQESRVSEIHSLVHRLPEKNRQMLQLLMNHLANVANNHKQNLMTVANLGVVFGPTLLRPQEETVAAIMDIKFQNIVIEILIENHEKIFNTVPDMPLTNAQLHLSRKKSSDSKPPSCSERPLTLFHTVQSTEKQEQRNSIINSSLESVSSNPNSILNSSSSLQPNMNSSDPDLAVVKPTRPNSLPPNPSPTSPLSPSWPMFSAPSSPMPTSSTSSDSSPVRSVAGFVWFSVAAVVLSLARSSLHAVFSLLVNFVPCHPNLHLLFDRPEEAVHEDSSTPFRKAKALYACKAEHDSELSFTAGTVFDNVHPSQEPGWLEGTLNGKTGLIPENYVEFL
Kind of test: co-IP; SKOV3 whole-cell lysates incubated with 2 ug anti-ARHGAP26, anti-SMURF1 or normal IgG antibody and protein G-agarose beads at 4 C overnight; SDS-PAGE and blot with anti-SMURF1 or anti-ARHGAP26.

Amino acid sequences for entries named in this document (tags omitted).
UniProt Q9HCE7: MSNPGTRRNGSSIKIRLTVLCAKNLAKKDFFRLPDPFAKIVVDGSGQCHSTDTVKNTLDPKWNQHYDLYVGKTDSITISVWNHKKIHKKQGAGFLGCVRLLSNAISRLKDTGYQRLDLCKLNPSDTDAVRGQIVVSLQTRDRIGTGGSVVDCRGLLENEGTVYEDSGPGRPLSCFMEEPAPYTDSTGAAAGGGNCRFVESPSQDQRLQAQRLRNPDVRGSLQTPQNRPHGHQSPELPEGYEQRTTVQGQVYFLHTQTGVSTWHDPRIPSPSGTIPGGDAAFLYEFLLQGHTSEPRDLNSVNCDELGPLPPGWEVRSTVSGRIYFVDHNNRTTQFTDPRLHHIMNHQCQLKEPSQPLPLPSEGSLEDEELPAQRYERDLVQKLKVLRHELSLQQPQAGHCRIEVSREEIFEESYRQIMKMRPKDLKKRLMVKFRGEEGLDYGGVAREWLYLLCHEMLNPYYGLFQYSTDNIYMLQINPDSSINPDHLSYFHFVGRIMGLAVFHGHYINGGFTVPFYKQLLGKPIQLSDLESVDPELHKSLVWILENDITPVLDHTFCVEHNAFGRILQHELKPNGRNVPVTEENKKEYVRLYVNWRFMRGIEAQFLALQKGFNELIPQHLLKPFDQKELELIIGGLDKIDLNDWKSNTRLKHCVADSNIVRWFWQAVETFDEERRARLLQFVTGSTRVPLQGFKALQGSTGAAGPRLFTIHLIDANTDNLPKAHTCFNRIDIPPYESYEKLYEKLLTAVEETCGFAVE

The target in test [2] is Smad ubiquitination regulatory factor 1 (SMURF1) (human (endogenous in SKOV3)) (UniProt Q9HCE7). The test is described as above.

These are yes or no findings as the source states them, for the method shown. Binding seen in cells or lysates may run through a third protein. Some entries that bind do so weakly or less than the wild type.

As for “Smad ubiquitination regulatory factor 1 (SMURF1) (from UniProt Q9HCE7 1-757) (enzyme)”, the binding result in test [1] was “binds”.

B1: Rho GTPase-activating protein 26 (ARHGAP26) (protein, UniProt Q9UNA1 1-814)
chain: T1 sequence
B1: the binding entry in test [2] was “binds”.

The values are drawn from PMC6474862.
